# According to PubChem BioAssay AID1487 (National Center for Advancing Translational Sciences (NCATS), 2009):
# In all, about 200,000 compounds went through this assay and about 25 (0.01%) were called active. This list was built around the results that the source calls inconclusive (neither active nor inactive); the mix of calls is not that of the screen. The call rests on the fitted dose curve; in most records, active means well fitted inhibition curve with a large enough effect in the signal ratio, with a control signal flat (not every such curve was filed as active); inconclusive means small, poorly fitted or top-dose-only effect, or effect the other way, or a change in a side signal; inactive means flat fitted curve, though single readings scatter; the % refers to the signal ratio. Potencies beside an inconclusive call are fits to weak or partial responses and may not hold up.
# Assay: qHTS Assay for Modulators of Lamin A Splicing
# Settings: HeLa LMNA splicing GFP/RFP minigene ratio, 48 h; ratio change, negative = inhibition: at 46.1 µM (top of the series) unless noted
# Outline: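 Read-out is the ratio of GFP to DsRed2 object intensity, acquired by 488 nm laser-scanning cytometry on HeLa lamin A-EGFP minigene reporter cells. Compound incubation 48 hrs at 37 °C in Opti-MEM with 2% FBS; DMSO 0.5% final.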
# On the % scale 0 is the no-effect control and ±100 the full control effect; potency means the concentration at half of the fitted maximal effect.
SMILES,"ratio change, negative = inhibition",Potency
c1cc2c(cc1C1=NNC(=NC3CC3)SC1)OCCO2,inconclusive: -48.8% [at 46 µM],–
CCCC1Nc2ccc(C(=O)O)cc2C2C=CCC12 (stereo not given),inconclusive: 9.19%,–
COc1ccccc1OCCOc1ccc(/C=C2/C(=N)N3OC(C)=CC3=NC2=O)cc1OC,inactive,–
Cc1ccc(C(=O)Nc2ccccc2SCC2CSc3nc4ccccc4c(=O)n32)cc1 (stereo not given),inconclusive: -32.7%,–
COc1cccc(Cn2c(=O)c(-c3cccc(C#N)c3)nc3cnc(N4CCOCC4)nc32)c1,inactive,–
CC(C)(C)NS(=O)(=O)c1cc(C(=O)Nc2sccc2C#N)ccc1Cl,–,"inconclusive: 11.2 µM [fluorescent, partial curve]"
CC(C)(C)CC(=O)Nc1ccc(C(N)=O)cc1,inactive,–
CNc1nc(-c2ccc3c(c2)OCO3)nc2ccccc12,inconclusive: -18.1%,–
CCOc1ccc(-c2nn(CC(=O)NC3CCCC3)c3c2cnc2ccc(F)cc23)cc1,inactive,–
Cc1ccccc1C(=O)Nc1cccc(NC(=O)c2ccc(-c3ccc(Br)cc3)o2)c1,inactive,–
CCSc1nc2c(c(=O)[nH]c(=O)n2C)n1CC(O)COc1ccccc1 (stereo not given),inactive,–
CC(C)(C)CC(C)(C)N=C1NS(=O)(=O)c2cc([N+](=O)[O-])ccc21,inconclusive: -26.6% [at 46 µM],–
NC1=NC(=Nc2ccc(Cl)cc2)c2ccccc21,–,"inconclusive: 35.5 µM [falling, single point]"
Cc1cccc(NS(=O)(=O)c2ccc3c(c2)C(C)(C)C(=O)N3C)c1,inactive,–
COc1cccc(C(=O)CSc2nnc(-c3cc(OC)cc(OC)c3)o2)c1,inconclusive: 3.77%,–
CC(C)(C)c1ccc(C(=O)NC(=S)NCC2CCCO2)cc1 (stereo not given),–,"inconclusive: 15.8 µM [falling, partial curve]"
Cc1nc2ccc(NC(=O)c3c(-c4ccccc4)noc3C)cc2s1,inactive,–
CCN(CC)CCCNC(=O)c1nn(C)c2c1CS(=O)(=O)c1ccccc1-2,–,"inconclusive: 25.1 µM [inhibitor, single point]"
Cc1ccccc1Cn1c(CN2CCC(C(=O)NCCc3ccccc3)CC2)cc2ccccc21,inconclusive: -20.5% [at 46 µM],–
CCN(CC)S(=O)(=O)c1cccc(NC(=O)COC(=O)CCC(=O)c2cccs2)c1,inconclusive: 5.31% [at 46 µM],–
COc1ccc(CNC(=O)C2CCN(c3nc4ccccc4[nH]3)CC2)cc1OC,inactive,–
COc1ccc(CNC(=O)CSc2nnc(-c3cccnc3)n2N)cc1,inconclusive: 3.68% [at 9.22 µM],–
Fc1ccc(-c2noc3ncnc(NCCCN4CCN(c5ccccc5)CC4)c23)cc1,inactive,–
COc1ccc(CCCC(=O)NCc2ccccc2)cc1C,inconclusive: -25.4%,–
COc1ccc(C(=O)NCC(c2ccc(N(C)C)cc2)N2CCc3ccccc32)c(OC)c1 (stereo not given),inconclusive: -33.4% [at 46 µM],–

SMILES,"ratio change, negative = inhibition",Potency
COC(=O)c1ccc(COC(=O)c2ccc(-n3cnnn3)cc2)o1,inactive,–
CC(/C=C1\SC(=S)N(CCCC(=O)Nc2ccc(C(=O)O)c(O)c2)C1=O)=C\c1ccccc1,inactive,–
CCc1c(C)nc2ncnn2c1N1CCC(C(=O)N2CCN(c3ccc(F)cc3)CC2)CC1,–,"inconclusive: 35.5 µM [fluorescent, single point]"
Cc1nc2ccn(Cc3cccs3)c(=O)c2cc1C(=O)Nc1ccccc1,inconclusive: -22.6% [at 46 µM],–
COc1ccc(-n2c(O)c(/C=N/NS(=O)(=O)c3cc(C)ccc3C)c3ccccc3c2=O)cc1OC,–,"inconclusive: 10 µM [inhibitor, partial curve]"
COC(=O)C1=C(C(=O)OC)[C@@H]2N(C)c3ccccc3[C@@]23C[C@@H](C(=O)OC)N(S(=O)(=O)c2ccc(C(F)(F)F)cc2)C3=N1,inactive: 9.34% [at 9.22 µM],–
CCN(CC)S(=O)(=O)c1ccc(C(=O)Nc2ccc(OCC(=O)N3CCOCC3)cc2)cc1,inactive,–
CCOC(=O)C1CCc2sc(N)c(C#N)c21 (stereo not given),inactive,–
CS(=O)(=O)N1CCN(c2ccccc2NC(=S)NC(=O)c2cccs2)CC1,inconclusive: 7.03% [at 46 µM],–
COc1cc(Cl)c(C)cc1NC(=O)CNC(C)c1ccccc1OC (stereo not given),–,"inconclusive: 25.1 µM [inhibitor, partial curve, poor fit]"
COc1ccc(OC)c(S(=O)(=O)N2c3cc(F)ccc3CCC2C)c1 (stereo not given),–,"inconclusive: 35.5 µM [fluorescent, single point]"
CN(C)c1ccc(-c2nc3ccccn3c2/N=C/c2ccc(Br)cc2)cc1,inconclusive: 2.21%,–
COc1ccc(CNS(=O)(=O)NCc2ccccc2)cc1,inconclusive: 23.1% [at 46 µM],–
Cc1cc(=O)[nH]c(-n2[nH]c3c(c2=O)CCCC3)n1,–,"inconclusive: 17.8 µM [cytotoxic, partial curve]"
Cc1ccc(-c2cn3c(n2)sc2cc(C(=O)NC(C)C45CC6CC(CC(C6)C4)C5)ccc23)cc1 (stereo not given),inconclusive: 23.6% [at 46 µM],–
Cc1nc2ccccc2c(-c2ccccc2)c1C(=O)c1ccccc1,inconclusive: -5.23%,–
OCCN(CCO)c1ccc2ccccc2c1,inactive,–
COc1ccc([N+](=O)[O-])cc1/C=N/NC(=O)/C(=C\c1cccs1)NC(=O)c1ccccc1,inactive,–
CCN1CCN(c2ncc3c(n2)CCN(Cc2ccc(OC(C)C)cc2)C3)CC1,inconclusive: -5.29% [at 46 µM],–
O=C(CN1CCN(S(=O)(=O)c2ccccc2)CC1)Nc1ccc([N+](=O)[O-])cc1,inconclusive: -26.9%,–
CCOC(=O)c1cccc(NC(=O)NCc2ccc3c(c2)CCN3C(=O)c2ccccc2)c1,inconclusive: -9.29% [at 46 µM],–
COc1ccc(NC(=O)c2cc(-c3ccc(OC)c(OC)c3)on2)cc1OC,inactive,–
COC(=O)c1ccc(N2CCOCC2)c(NC(=O)Nc2cccc(OC)c2)c1,inactive,–
CN(C)C(CNC(=O)c1ccc(NC(=O)CC#N)cc1)c1ccccc1 (stereo not given),inactive: -18.5% [at 9.22 µM],–
CCOC(=O)C(=O)N1CCN(c2cc3c(cc2[N+](=O)[O-])n(C)c(=O)n3C)CC1,inconclusive: 26.8% [at 46 µM],–

# 4 compounds already listed, ordered by molecular weight, rising.
SMILES,"ratio change, negative = inhibition",Potency
OCCN(CCO)c1ccc2ccccc2c1,inactive,–
Cc1nc2ccccc2c(-c2ccccc2)c1C(=O)c1ccccc1,inconclusive: -5.23%,–
CCN1CCN(c2ncc3c(n2)CCN(Cc2ccc(OC(C)C)cc2)C3)CC1,inconclusive: -5.29% [at 46 µM],–
CCOC(=O)c1cccc(NC(=O)NCc2ccc3c(c2)CCN3C(=O)c2ccccc2)c1,inconclusive: -9.29% [at 46 µM],–
